From patent CN117866904A come the findings set out here.

By UniProt entry, the sequences of proteins in these tests, tags left out. Residues count along the entry.
UniProt Q96F46, residues 33-866: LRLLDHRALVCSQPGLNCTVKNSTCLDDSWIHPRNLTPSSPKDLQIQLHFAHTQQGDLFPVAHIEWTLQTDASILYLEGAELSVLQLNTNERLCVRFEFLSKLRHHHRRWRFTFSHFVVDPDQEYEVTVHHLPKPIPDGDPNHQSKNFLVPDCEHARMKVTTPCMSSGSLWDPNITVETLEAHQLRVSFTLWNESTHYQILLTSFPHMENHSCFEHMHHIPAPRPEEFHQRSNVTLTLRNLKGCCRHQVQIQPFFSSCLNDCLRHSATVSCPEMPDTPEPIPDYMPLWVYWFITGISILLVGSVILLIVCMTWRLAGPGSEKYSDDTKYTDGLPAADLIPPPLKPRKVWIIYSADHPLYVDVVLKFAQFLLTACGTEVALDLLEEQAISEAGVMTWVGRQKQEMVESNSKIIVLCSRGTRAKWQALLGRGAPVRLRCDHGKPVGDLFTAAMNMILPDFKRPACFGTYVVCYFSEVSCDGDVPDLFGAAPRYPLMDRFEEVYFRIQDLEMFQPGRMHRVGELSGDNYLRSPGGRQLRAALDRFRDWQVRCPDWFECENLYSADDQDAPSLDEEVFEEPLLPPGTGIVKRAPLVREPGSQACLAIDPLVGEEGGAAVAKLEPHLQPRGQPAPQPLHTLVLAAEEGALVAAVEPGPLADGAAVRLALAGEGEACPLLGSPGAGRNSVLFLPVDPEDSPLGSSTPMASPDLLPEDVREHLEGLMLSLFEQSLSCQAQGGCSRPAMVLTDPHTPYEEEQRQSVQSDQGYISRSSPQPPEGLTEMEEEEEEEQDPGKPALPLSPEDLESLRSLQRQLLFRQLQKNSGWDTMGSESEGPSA

Results are given in words; binding and its absence hold for the method and conditions named. Some entries that bind do so weakly or less than the wild type. For some assays here: Sequences can lack the tags named with a protein.

The target in assay [1] is IL-17RA (UniProtKB: Q96F46), overexpressed on 293F-IL-17RA-IL-17Rc-ACT1-NFκB-Luc reporter cells (UniProt Q96F46). As to the kind of experiment: recombinant IL-17A on 293 cells overexpressing IL-17RA and IL-17RC.
Assay [2] has as its target T1, IL-17RC (UniProtKB: Q8NAC3), overexpressed on 293F-IL-17RA-IL-17Rc-ACT1-NFκB-Luc reporter cells (UniProt Q8NAC3).
T1 sequence (looked up): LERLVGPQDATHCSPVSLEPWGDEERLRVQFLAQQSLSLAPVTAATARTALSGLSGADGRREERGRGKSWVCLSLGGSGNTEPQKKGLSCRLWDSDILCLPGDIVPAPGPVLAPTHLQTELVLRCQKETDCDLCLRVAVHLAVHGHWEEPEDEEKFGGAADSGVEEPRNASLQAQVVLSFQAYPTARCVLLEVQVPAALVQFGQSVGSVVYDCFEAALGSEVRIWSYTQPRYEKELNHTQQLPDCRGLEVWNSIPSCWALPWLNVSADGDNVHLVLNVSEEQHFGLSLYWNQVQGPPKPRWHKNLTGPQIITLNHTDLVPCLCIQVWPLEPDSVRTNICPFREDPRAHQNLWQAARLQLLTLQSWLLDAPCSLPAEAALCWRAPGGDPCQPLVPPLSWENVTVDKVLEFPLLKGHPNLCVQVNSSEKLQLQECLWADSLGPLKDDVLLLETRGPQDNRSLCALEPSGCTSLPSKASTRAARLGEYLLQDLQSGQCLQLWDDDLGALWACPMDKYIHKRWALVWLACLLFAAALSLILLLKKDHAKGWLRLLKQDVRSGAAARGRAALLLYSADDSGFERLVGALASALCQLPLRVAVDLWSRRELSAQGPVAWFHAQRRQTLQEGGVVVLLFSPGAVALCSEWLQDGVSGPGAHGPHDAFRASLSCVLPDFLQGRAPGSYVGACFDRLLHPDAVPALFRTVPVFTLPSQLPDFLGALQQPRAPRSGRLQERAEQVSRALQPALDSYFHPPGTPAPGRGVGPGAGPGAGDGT
The assay is described as above.

In the case of “IL-17A重组蛋白(抗原), IL-17 antigen with a C-terminal 6×His tag, expressed in E. coli BL21 (from UniProt Q16552 24-155) (ligand)”, the binding entry in assay [1] and in assay [2] was “binds” each time.
